Assay results from publication doi:10.1101/585604.
Results are given in words; binding and its absence hold for the method and conditions named. In cells and extracts the contact can be indirect. Binding calls can cover weak binding; strength is not graded here. Where a sequence is shown, tags or fusion partners need not be part of it.

The chains behind the UniProt entries cited, without tags or fusion partners. Where a name states a change or a piece, a line headed by the entry shows the natural chain unless it says otherwise.
UniProt P41235: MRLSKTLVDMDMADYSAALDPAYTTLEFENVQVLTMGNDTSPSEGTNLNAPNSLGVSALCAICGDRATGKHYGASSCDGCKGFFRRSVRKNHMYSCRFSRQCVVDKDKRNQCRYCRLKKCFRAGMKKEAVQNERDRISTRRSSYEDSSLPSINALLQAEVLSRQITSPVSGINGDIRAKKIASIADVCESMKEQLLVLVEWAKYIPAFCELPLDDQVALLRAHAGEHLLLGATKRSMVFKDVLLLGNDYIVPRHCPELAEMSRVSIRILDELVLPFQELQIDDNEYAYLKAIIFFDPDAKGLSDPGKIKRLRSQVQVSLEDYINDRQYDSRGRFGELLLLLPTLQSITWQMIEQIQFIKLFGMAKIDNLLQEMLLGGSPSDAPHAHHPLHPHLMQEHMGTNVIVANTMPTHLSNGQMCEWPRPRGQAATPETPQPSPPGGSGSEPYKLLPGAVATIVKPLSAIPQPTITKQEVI

Biological target: GFP-tagged HNF4α4 (human) (UniProt P41235)
Test: co-IP

B1: FLAG-tagged HNF4γ (protein, UniProt Q14541 1-408)
chain: MNTTDNGVNCLCAICGDRATGKHYGASSCDGCKGFFRRSIRKSHVYSCRFSRQCVVDKDKRNQCRYCRLRKCFRAGMKKEAVQNERDRISTRRSTFDGSNIPSINTLAQAEVRSRQISVSSPGSSTDINVKKIASIGDVCESMKQQLLVLVEWAKYIPAFCELPLDDQVALLRAHAGEHLLLGATKRSMMYKDILLLGNNYVIHRNSCEVEISRVANRVLDELVRPFQEIQIDDNEYACLKAIVFFDPDAKGLSDPVKIKNMRFQVQIGLEDYINDRQYDSRGRFGELLLLLPTLQSITWQMIEQIQFVKLFGMVKIDNLLQEMLLGGASNDGSHLHHPMHPHLSQDPLTGQTILLGPMSTLVHADQISTPETPLPSPPQGSGQEQYKIAANQASVISHQHLSKQKQL
Q: For B1, which binding is on record?
A: Its binding is “binds”.
